Laboratory results from article PMC10239413.
These are yes or no findings as the source states them, for the method shown. Binding seen in cells or lysates may run through a third protein. Some binding calls cover weakened binding; strength is not graded here.

Sequences of proteins named here, by UniProt entry; tags and fusion partners are left off.
UniProt P54252: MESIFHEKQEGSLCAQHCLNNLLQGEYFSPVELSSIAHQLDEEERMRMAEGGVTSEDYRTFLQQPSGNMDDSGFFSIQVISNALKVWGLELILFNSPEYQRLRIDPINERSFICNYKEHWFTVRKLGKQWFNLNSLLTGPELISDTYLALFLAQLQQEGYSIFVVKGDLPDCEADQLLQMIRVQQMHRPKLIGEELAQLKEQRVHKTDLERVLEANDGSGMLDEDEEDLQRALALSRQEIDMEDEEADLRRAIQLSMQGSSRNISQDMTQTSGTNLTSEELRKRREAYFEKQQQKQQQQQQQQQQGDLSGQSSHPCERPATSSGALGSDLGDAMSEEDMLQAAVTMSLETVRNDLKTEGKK
UniProt Q14457: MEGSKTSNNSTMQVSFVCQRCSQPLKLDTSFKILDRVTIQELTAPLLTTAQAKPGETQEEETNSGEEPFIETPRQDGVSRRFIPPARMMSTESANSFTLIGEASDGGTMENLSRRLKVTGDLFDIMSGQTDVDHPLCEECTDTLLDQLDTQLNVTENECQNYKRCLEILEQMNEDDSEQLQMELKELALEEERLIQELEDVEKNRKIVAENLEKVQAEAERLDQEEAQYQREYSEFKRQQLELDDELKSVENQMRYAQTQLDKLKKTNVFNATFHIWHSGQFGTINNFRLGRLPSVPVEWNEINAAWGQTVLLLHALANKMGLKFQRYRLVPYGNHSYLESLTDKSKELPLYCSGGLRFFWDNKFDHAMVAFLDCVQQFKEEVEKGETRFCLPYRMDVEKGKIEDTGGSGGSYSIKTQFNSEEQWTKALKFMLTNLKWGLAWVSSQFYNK

Tests used:
[1] = target: ataxin-3 (human (endogenous in T24 and EJ)) (UniProt P54252); test: co-IP; endogenous proteins in lysates of T24 and EJ cells; primary antibody (anti-VCP, anti-Beclin 1 or anti-ataxin-3) overnight at 4 °C, protein A + G magnetic beads, western blot; cells also with circHIPK3 overexpression (Fig. 6C) or treated with DBeQ 20 μM, 12 h (Fig. 5H)
[2] = target: Beclin 1 (human (endogenous in T24 and EJ)) (UniProt Q14457); test: as above

Substance | binding [1] | binding [2]
Beclin 1 (from UniProt Q14457 1-450) | binds | –
Valosin-containing protein (from UniProt P55072 1-806) | – | binds
